The values below come from article PMC7819943, “Rice protein-binding microarrays: a tool to detect cis-acting elements near promoter regions in rice”.

Protein sequences, listed by entry. Tags and fused reporters are not part of them.
UniProt Q0JBA9, entry or part of it: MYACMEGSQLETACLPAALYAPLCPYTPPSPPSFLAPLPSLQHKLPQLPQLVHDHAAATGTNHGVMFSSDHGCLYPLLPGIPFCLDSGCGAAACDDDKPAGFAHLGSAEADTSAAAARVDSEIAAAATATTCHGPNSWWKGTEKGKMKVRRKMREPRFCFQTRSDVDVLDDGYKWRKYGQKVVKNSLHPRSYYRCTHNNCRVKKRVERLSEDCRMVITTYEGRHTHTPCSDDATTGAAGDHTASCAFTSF

Some of the results follow.

This assay has as its target OsWRKY34 (Oryza sativa, UniProt Q0JBA9 1-250). Kind of assay: protein-binding microarray (RPBM); PBS, 2% BSA, 51.3 ng/ul salmon testes DNA, 50 uM zinc acetate, 200 nM TF, 25 C, 1 h; high values mean tight binding. The following applies: protein: recombinant; tags: N-terminal polyhistidine and DsRed monomer fusion (pET32a); label: CyDye5-dUTP incorporated in the synthesized complementary strand; 3' TTTTT single-stranded linker to array surface; dsDNA, one strand shown. The essentials:
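An Axon 4000B scanner gave the binding signal as per-feature fluorescence intensity in arbitrary units. This followed washing of a custom Agilent array that had been incubated for 1 h at 25 °C with 200 nM protein in PBS, 2% BSA, salmon testes DNA and 50 µM zinc acetate. The proteins were transcription factors fused at the N-terminus to polyhistidine and DsRed, expressed in E. coli BL21-CodonPlus and purified on Ni–NTA.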
As for “CATCCTTCTCCGCGGCCATTTCTTGGAGCAAATCTCATTTCGGAGTCACCTAGTGCAG”, the binding signal was 8420 fluorescence intensity (a.u.).

For the sequence “TTTGTGGGTGGTTTTGGGCTAAAGATTCCGTTTCTTTCGACGGAGTCACCTAGTGCAG”, the binding signal was 9250 fluorescence intensity (a.u.).

“TGGCATCAATCATTATCACATATTTCTTCGGCAGTTAATTCGGAGTCACCTAGTGCAG”: the binding signal was 8040 fluorescence intensity (a.u.).

Take “CTTCGGTTTTGAACAAAATGCCTTCGAATTCAGTTTTTATCGGAGTCACCTAGTGCAG”: the binding signal is 8980 fluorescence intensity (a.u.).

Take “CTGCTCCTATCATGTGGCGTAATAGAATTGTTTACTTATACGGAGTCACCTAGTGCAG”: the binding signal is 8620 fluorescence intensity (a.u.).

Consider “CACCCACTATTCATATTTCACTTTTAATCACTTGTTTTAACGGAGTCACCTAGTGCAG”, for which the binding signal is 8240 fluorescence intensity (a.u.).

For the sequence “ATGGCCGTCTCCATCGCTTCGTTTCACCTCGCTTTCCATGCGGAGTCACCTAGTGCAG”, the binding signal is 12600 fluorescence intensity (a.u.).

“AATCCTACGTTTTTCCTATTCCTATGTTTTCTCAGTCATGCGGAGTCACCTAGTGCAG”: the binding signal was 10100 fluorescence intensity (a.u.).

“GCCACTGAAAAAGTGTCTTTTTTCCTCTATCTCCCTCTATCGGAGTCACCTAGTGCAG”: the binding signal was 8510 fluorescence intensity (a.u.).

For the sequence “TTTTGAGGTTTTTTCATCGTAGTTTATTTTTCAGCATTTACGGAGTCACCTAGTGCAG”, the binding signal is 9900 fluorescence intensity (a.u.).

On to “TGCATTGCTTTCCCTGCCTCCTCTGCAAGAGCTCCATCATCGGAGTCACCTAGTGCAG”, for which the binding signal is 8280 fluorescence intensity (a.u.).

Turning to “GTAATGGTCACTACTGACCAATTCGTTTGCCCGTCACAGGCGGAGTCACCTAGTGCAG”, the binding signal is 12300 fluorescence intensity (a.u.).

In the case of “CTTATTGTTGTTGGTTCGATTTATGTTGTCTTCTTCCTCTCGGAGTCACCTAGTGCAG”, the binding signal is 9210 fluorescence intensity (a.u.).

On to “CGTGTGTGTGTTGCAGGTTTCACTGCAGTTGCTGGAGTTTCGGAGTCACCTAGTGCAG”, for which the binding signal was 9340 fluorescence intensity (a.u.).

Turning to “TCTGTGCATTTACTTTCAATATTATTACACTTTTAGTTGCCGGAGTCACCTAGTGCAG”, the binding signal was 8460 fluorescence intensity (a.u.).

Take “TTACAGCACTATCTAATCTAGTATCTACTCGTCTTGTTATCGGAGTCACCTAGTGCAG”: the binding signal is 10400 fluorescence intensity (a.u.).

For “GTGAATTTCCACCCTGCTGTTGCTGTTTATGTGAATCGCCCGGAGTCACCTAGTGCAG”, the binding signal is 8050 fluorescence intensity (a.u.).

“ATTCTGCCCATGTTTTCTATTCGTACTATAGTGTGTTTTACGGAGTCACCTAGTGCAG”: the binding signal is 14500 fluorescence intensity (a.u.).

With “TCATGAGGAGTAGATCGCTTGGGTTTTTTATCGTATGGTGCGGAGTCACCTAGTGCAG”, the binding signal was 8600 fluorescence intensity (a.u.).

Turning to “GCCTAGTTCAATTCACCCGTTTTCTGGCCCAATGGAAATTCGGAGTCACCTAGTGCAG”, the binding signal is 8500 fluorescence intensity (a.u.).

As to “TTCAAGCTCCCAATTTTCCCTTTTAATGTTCCCACTTTTTCGGAGTCACCTAGTGCAG”, the binding signal is 8660 fluorescence intensity (a.u.).

Consider “ACTAACTTGCGTTGTGTGGTGGGTATAGATTGGTATAACACGGAGTCACCTAGTGCAG”, for which the binding signal was 10400 fluorescence intensity (a.u.).

Take “TTTGGGGATTTCTTTCTTATTTTTCTTTCCCTTTTTTTCCCGGAGTCACCTAGTGCAG”: the binding signal was 10900 fluorescence intensity (a.u.).

For the sequence “GGGTATATAAACTTTGGGTCTATAAACTTTAGGTGTATAACGGAGTCACCTAGTGCAG”, the binding signal is 8650 fluorescence intensity (a.u.).

For the sequence “GCTGCTCCCATATGTTTATTCAGAGATGCTCTCTTTGTCCCGGAGTCACCTAGTGCAG”, the binding signal was 8940 fluorescence intensity (a.u.).

As for “TACGGAAATACTACTACTGTCCAATTTCCGACTTCATGAGCGGAGTCACCTAGTGCAG”, the binding signal was 8800 fluorescence intensity (a.u.).

As for “TTCTTTTGTTAGCTTGTATGTCCTAGCACACGTTTATCTTCGGAGTCACCTAGTGCAG”, the binding signal is 11800 fluorescence intensity (a.u.).

Regarding “TACTCTGATAACTTTCTCTGCGCTGATTTTATTCTAAATCCGGAGTCACCTAGTGCAG”, the binding signal is 9070 fluorescence intensity (a.u.).

On to “TCCTCTCGGGCCCGGCGCCCCATGCCGCGTGCATCCAAAACGGAGTCACCTAGTGCAG”, for which the binding signal is 8240 fluorescence intensity (a.u.).

With “CAGCCAAATTCACCATCCTCCAGCGATCGATCGATCACCTCGGAGTCACCTAGTGCAG”, the binding signal was 8110 fluorescence intensity (a.u.).

On to “TATCTCGGTGTCCACCATCATCTCATATATGGCCTTGTTTCGGAGTCACCTAGTGCAG”, for which the binding signal was 13500 fluorescence intensity (a.u.).

In the case of “ATGCATTTGTCATTGGTTGGCATGTTTGCCATCTGTTCTGCGGAGTCACCTAGTGCAG”, the binding signal was 8840 fluorescence intensity (a.u.).

In the case of “TGAAGCCCTCTATATGTACCCTTTTCGAACCTGTTCATCACGGAGTCACCTAGTGCAG”, the binding signal was 8030 fluorescence intensity (a.u.).

Regarding “AGGGTTATTTTAATCATATTATTGTTAGTTTTTTTTGTATCGGAGTCACCTAGTGCAG”, the binding signal was 9690 fluorescence intensity (a.u.).

On to “CTCCACCAACCTTGCCACCATTCTGTCCAGTCAAAACTTGCGGAGTCACCTAGTGCAG”, for which the binding signal was 9510 fluorescence intensity (a.u.).

Regarding “CCTTCCGCCGCGCCTTCGCCACCTCGTTCTGCGCCTTCTCCGGAGTCACCTAGTGCAG”, the binding signal was 10200 fluorescence intensity (a.u.).

On to “CTCCCTCGCGCGCCGGTCCTCCATCGCCCTCGCCGCCCCGCGGAGTCACCTAGTGCAG”, for which the binding signal was 8500 fluorescence intensity (a.u.).

On to “GTTGACGTACTGACGTGTTTTTATCTATTTGTCCCTCAACCGGAGTCACCTAGTGCAG”, for which the binding signal was 9410 fluorescence intensity (a.u.).

Take “TTTCCGGCATCAGTCTTTGTTATAGTATGTTTCAGCTGTCCGGAGTCACCTAGTGCAG”: the binding signal is 10500 fluorescence intensity (a.u.).

Regarding “CTCCACCACCTCTACCCTACGCCGCTGCTGCTCTTTCGCTCGGAGTCACCTAGTGCAG”, the binding signal is 13300 fluorescence intensity (a.u.).

For the sequence “ATGTATGAAGTTCCAGTATATTCTCTCTTCATCTAGATTTCGGAGTCACCTAGTGCAG”, the binding signal is 8040 fluorescence intensity (a.u.).

In the case of “ACCTATTGCAACACATATATTTTCCCTAGTTTATATTTATCGGAGTCACCTAGTGCAG”, the binding signal was 8620 fluorescence intensity (a.u.).
